Among the data in the supplement of paper PMC5949888 are growth estimate values, retold here.

Most values lie at the floor of the assay. Slopes are relative: functional sequences can read slightly below zero.

In the data set the test system is Saccharomyces cerevisiae PS128 hsf1 delta, HSF1(1-493) fusion. Nature of the data set: growth estimate (transactivation domain function in HSF1 fusion, heat-shock survival) (a.u. (slope of normalised read count over time)); higher = stronger growth at 37°C, i.e. more transactivation activity. The note with it: library: random library.
For the substance RQYPRFLCYVFASWPFRG, the growth estimate was less than -0.25.

Consider ESMPQISTSNGKSIG, for which the growth estimate is less than -0.25.

As for FNDAALLYITGQSNTCHLET, the growth estimate is less than -0.25.

NCEWSRRLC: the growth estimate was less than -0.25.

On to PINC, for which the growth estimate was less than -0.25.

As for SAY, the growth estimate is less than -0.25.

As to VKTCARLLS, the growth estimate is less than -0.25.

Regarding CSKSDGGGQF, the growth estimate was less than -0.25.

In the case of KIL, the growth estimate is -0.237.

Take VRFRAL: the growth estimate is less than -0.25.

CLNSRSHYCTPLRIRRHFIR: the growth estimate is less than -0.25.

Take RVAEKPGCLWALGVAHDDLQ: the growth estimate was -0.243.

For the substance AKGGEPL, the growth estimate was less than -0.25.

STVWTRTCADFMRRRRSGAG: the growth estimate was less than -0.25.

With VGQRALNGICFGVRFPFEND, the growth estimate is less than -0.25.

As to SRGCVASVVEFRGSKEICRP, the growth estimate was less than -0.25.

For the substance LRVPEQIKPSLSTVLGKCLV, the growth estimate was less than -0.25.

As for VSKWMVWPPAKVWIKERAPQ, the growth estimate is less than -0.25.

Take SWSQP: the growth estimate was less than -0.25.

As to ISTDARK, the growth estimate was less than -0.25.

As to LRFSFFTVHVRSRLIICVAR, the growth estimate is less than -0.25.

With SQVFPDQAAPGHLGYPNWWL, the growth estimate was -0.109.

For the substance IGGSAIGRGYGFNHLGYMPS, the growth estimate is less than -0.25.

RKEGHDQDCVMTLSNVAE: the growth estimate is less than -0.25.

For the substance GEHGPKVLPAMAWHDG, the growth estimate is less than -0.25.

Regarding HRQKSRAVERIKMPSRTRGR, the growth estimate is less than -0.25.

Consider SIRVATSPSGQKHGLTGASV, for which the growth estimate was less than -0.25.

With SGPARGLWQSEDN, the growth estimate is less than -0.25.

Take TPPIHPARLC: the growth estimate was less than -0.25.

Turning to GRVRTGAYSGILSDTQSRRG, the growth estimate is less than -0.25.

VPTGFE: the growth estimate was less than -0.25.

Regarding VWYI, the growth estimate is less than -0.25.

SRLFLPRRRHVRSDRRVW: the growth estimate was less than -0.25.

On to DLLIAPG, for which the growth estimate is less than -0.25.

With GMLSGRLAC, the growth estimate was -0.228.

For the substance CDQN, the growth estimate was less than -0.25.

For GWITSGVRRDPQPLSD, the growth estimate is less than -0.25.

As to GVHSNQKRGISPRIQGTPPT, the growth estimate is less than -0.25.

For the substance REEDSL, the growth estimate was less than -0.25.

As to RGVDSLPDGSKGCQAQASGC, the growth estimate is less than -0.25.

For the substance QLSSPAPGNHSCARNSSGLQ, the growth estimate was less than -0.25.

For TFDQSGGFECSRRSLEIRRP, the growth estimate was less than -0.25.

For TSYVCLEDKPLLSYRV, the growth estimate is less than -0.25.

Turning to RPGPELEVCATSR, the growth estimate is less than -0.25.

Consider PEELDTCGAVGSDYKVFGGQ, for which the growth estimate was less than -0.25.

Regarding LAVGPRVNDIIVVVIRHVQD, the growth estimate is less than -0.25.

Turning to DGVIPQ, the growth estimate is less than -0.25.

With CYIKSSAHEGLKQVMCGRLS, the growth estimate is less than -0.25.

With TVLHVSW, the growth estimate is less than -0.25.

With LQRPI, the growth estimate was less than -0.25.

In the case of YREGRASESMMFIFQGLAPP, the growth estimate is less than -0.25.

Consider TIPSTI, for which the growth estimate was less than -0.25.

As to VGWEQVTFTLTLSCLEYANM, the growth estimate was less than -0.25.

For SHSQP, the growth estimate was less than -0.25.

Turning to QES, the growth estimate is less than -0.25.

As for QRSR, the growth estimate is less than -0.25.

LGVLGLKR: the growth estimate is less than -0.25.

For the substance IMGFCVLDVSTDVVLDLHR, the growth estimate is less than -0.25.

Take LVIKLIAPEVLGTRYLRTY: the growth estimate was less than -0.25.

Consider TGRSPQGEGWPEKIGRGSQS, for which the growth estimate is less than -0.25.

Regarding LHDVRAWLGRVRVRCVG, the growth estimate is less than -0.25.

As for EVCTYPKMHS, the growth estimate is less than -0.25.

As for ADTGYSSYTMRSIQVARSPP, the growth estimate is less than -0.25.

On to CTRSEL, for which the growth estimate was less than -0.25.

As to LLLRKCANSTSQVRGLMRNG, the growth estimate was less than -0.25.

Take SPAR: the growth estimate was less than -0.25.

As to VSTCSPI, the growth estimate was less than -0.25.

For the substance CKEHSGRRYEYNAS, the growth estimate is less than -0.25.

For the substance LYLIPRGYGTCITDWPSAGE, the growth estimate was less than -0.25.

For the substance RDGTSSSTRCCFSIVEIPYL, the growth estimate was less than -0.25.

As to KVTANAR, the growth estimate is less than -0.25.

With DAQQDLSSEMDREIHGMSAR, the growth estimate was less than -0.25.

Take ANSPYRCVGFCKHGNHILVV: the growth estimate is less than -0.25.

Turning to SMTPMVIIDSRRTIVV, the growth estimate is less than -0.25.

With ERLGCCGS, the growth estimate is less than -0.25.

For the substance DISL, the growth estimate was less than -0.25.

In the case of CLTNYSFSRIGSLKQKPAVR, the growth estimate was less than -0.25.

On to MLKENGHWVQSSAPGTVWNT, for which the growth estimate is less than -0.25.

For NRSRSERFGTSTREHQREPP, the growth estimate was -0.231.

Take DAIANKGL: the growth estimate was less than -0.25.

Regarding LWIGKKGHLSRGMANMTFSS, the growth estimate was less than -0.25.

As to PVCASCSIIVSRPLVRFIGV, the growth estimate is less than -0.25.

Take QGKCATRHTV: the growth estimate was less than -0.25.

QCVVKLCATEEACCLG: the growth estimate is less than -0.25.

In the case of RRPSRKMVSAQGSTVNCRPP, the growth estimate was less than -0.25.

Take LASRQVTLYIFRDPRWNSSP: the growth estimate is less than -0.25.

In the case of CPWVKVQVGYKVLVPYRYST, the growth estimate is less than -0.25.

In the case of LVRFLDSSRYHLLIASWPGP, the growth estimate is less than -0.25.

Take SVSFWLRDLGPGTAGVDSDC: the growth estimate is -0.203.

For TERGISEP, the growth estimate was less than -0.25.

Consider IWLHRRRPVRVSCTHGTSKV, for which the growth estimate was less than -0.25.

Consider KVLGR, for which the growth estimate was less than -0.25.

With NHPVIFRDVSDATAGTQSAR, the growth estimate is less than -0.25.

As to GCVA, the growth estimate is less than -0.25.

As to SVEAGYLLAIPVIGSVAACR, the growth estimate was less than -0.25.

Regarding YATGGLGADNTLLSCQELDP, the growth estimate was less than -0.25.

Take QRGWLHCRGLSFIASFTQLS: the growth estimate is less than -0.25.

On to SRSSRKVALRTSGKPIKASH, for which the growth estimate was less than -0.25.

PARSDGKYSCSSTKLLDTRA: the growth estimate was less than -0.25.

LILRNG: the growth estimate is less than -0.25.

Take LHLICRRD: the growth estimate was less than -0.25.

Take STLNAAITAVMGRLVSPSQR: the growth estimate is less than -0.25.

As to YRSCSLSNEEGLVRRVSMHA, the growth estimate was less than -0.25.

Consider LGRANSSGVF, for which the growth estimate was less than -0.25.

On to RSR, for which the growth estimate was less than -0.25.

For RSASEGI, the growth estimate is less than -0.25.

In the case of PRERAFAESPLTV, the growth estimate is less than -0.25.

In the case of DPHKHLTCSLPASSLNDQRG, the growth estimate was less than -0.25.

For the substance LQWRFSVIGTRCD, the growth estimate is less than -0.25.

In the case of DSALRTDS, the growth estimate is less than -0.25.

Turning to SGTPVIYWSAKVVRRSMERR, the growth estimate is less than -0.25.

For ARAT, the growth estimate was less than -0.25.

With DQHCHLAAEGEA, the growth estimate was less than -0.25.

On to SSFSDTSVSGDWRADRKPGR, for which the growth estimate was less than -0.25.

As for LEYVQYRVL, the growth estimate is less than -0.25.

In the case of YGATLRDLEFPGRRATVYCV, the growth estimate is less than -0.25.
